These are yes or no findings as the source states them, for the method shown. Some entries that bind do so weakly or less than the wild type.

By UniProt entry, the sequences of proteins in these tests, tags left out. Where a name states a change or a piece, a line headed by the entry shows the natural chain unless it says otherwise. Residues count along the entry.
UniProt P35222: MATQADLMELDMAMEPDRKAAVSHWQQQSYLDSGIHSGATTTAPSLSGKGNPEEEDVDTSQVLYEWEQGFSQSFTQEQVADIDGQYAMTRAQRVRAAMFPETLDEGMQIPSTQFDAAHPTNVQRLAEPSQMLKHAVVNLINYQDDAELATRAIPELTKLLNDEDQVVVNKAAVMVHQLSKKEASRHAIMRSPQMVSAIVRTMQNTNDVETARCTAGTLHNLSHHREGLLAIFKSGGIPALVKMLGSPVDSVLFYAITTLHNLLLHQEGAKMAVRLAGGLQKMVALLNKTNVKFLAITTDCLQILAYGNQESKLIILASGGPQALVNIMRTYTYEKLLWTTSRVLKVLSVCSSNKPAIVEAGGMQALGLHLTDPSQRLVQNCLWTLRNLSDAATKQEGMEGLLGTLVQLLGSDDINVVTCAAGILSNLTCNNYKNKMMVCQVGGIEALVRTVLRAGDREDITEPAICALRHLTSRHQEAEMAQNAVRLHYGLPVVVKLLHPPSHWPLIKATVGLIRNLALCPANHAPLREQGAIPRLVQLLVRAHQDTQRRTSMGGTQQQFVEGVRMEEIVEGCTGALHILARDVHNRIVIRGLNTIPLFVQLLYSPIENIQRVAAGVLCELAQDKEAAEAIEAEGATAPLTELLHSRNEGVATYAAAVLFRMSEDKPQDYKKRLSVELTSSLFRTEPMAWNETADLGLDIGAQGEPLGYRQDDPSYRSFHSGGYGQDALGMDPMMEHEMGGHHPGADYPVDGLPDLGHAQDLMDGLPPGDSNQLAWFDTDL
UniProt P12830, residues 731-882: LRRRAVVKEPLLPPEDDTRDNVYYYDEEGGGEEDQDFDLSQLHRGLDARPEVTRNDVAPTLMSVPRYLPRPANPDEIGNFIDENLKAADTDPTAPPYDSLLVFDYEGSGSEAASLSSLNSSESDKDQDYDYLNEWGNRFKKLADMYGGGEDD

Some targets named below: GST–β-catenin S675D (UniProt P35222); GST–β-catenin S675A (UniProt P35222); GST–β-catenin WT (UniProt P35222).
Common to all, as to experiment: pull-down; GST-fusion protein on glutathione-Sepharose beads, with or without PAK1 kinase domain and cold ATP (5 min, 30°C), then cleaved proteins (0.05 and 0.1 µg) in phosphorylation buffer (50 mM Hepes pH 7.3, 10 mM MgCl2, 10 mM NaF, 2 mM MnCl2) with 0.3 M NaCl and 0.5% Triton X-100, 30 min at 4°C; both purified
For test [1], the target named is GST–E-cadherin cytoplasmic tail phosphorylated by PAK1 (UniProt P12830).
Test [2] has as its target GST–E-cadherin cytoplasmic tail (UniProt P12830).

Take “recombinant E-cadherin cytoplasmic tail (in solution) (from UniProt P12830 731-882) (domain or fragment)”: the binding result in the test with GST–β-catenin S675D, with GST–β-catenin S675A and with GST–β-catenin WT was “binds” in each case.
As for “β-catenin (cleaved from GST–β-catenin) (from UniProt P35222 1-781)”, the binding result in test [1] and in test [2] was “binds” throughout.
